Among all 410,000 compounds or so, about 18,000 (4.4%) were called active. The inconclusive results got no clear call from the source; some entries with a clear call stand among them for comparison. Cut-off read from the data, not from the text of the source: active = activity change below about -60%; inconclusive = no clear call, values can overlap the other calls; inactive = above about -39%.
Assay: qHTS Assay for inhibitors of the human cytomegalovirus (HCMV)
Conditions: HFF cells, HCMV-luciferase reporter, 72 h; at 57.5 µM; hits give low values
Summary of the method: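 Luciferase read-out from HCMV-luciferase-infected HFFs (MOI 1 PFU/cell) 72 h post infection at 37C; compounds added after 16 h cell attachment; activity normalized between buffer-only basal and Salinomycin (10uM) inhibitor controls.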
% is set by controls: 0 for no effect and ±100 for the full control effect.

| SMILES | activity change, negative = inhibition |
| --- | --- |
| CN(C)C(=O)c1cccc(-c2cnc3c(NC=O)cc(-c4cccc(C(F)(F)F)c4)cn23)c1 | inconclusive: -54.4% |
| Cc1cc(C(=O)OCC(=O)NC2CC2)c2ccccc2n1 | inconclusive: 0% |
| CCOC(=O)Cc1csc(SCC(=O)Nc2sc3c(c2C(N)=O)CCC3)n1 | inactive: -3.78% |
| CC(=O)Nc1ccc(S(=O)(=O)NCCc2csc(-c3cccnc3)n2)cc1 | inconclusive: -47.4% |
| C=C1CC2C3CC[C@@]4(OCOC45COCO5)[C@@]3(C)C(O)CC2[C@@]2(C)CCC(=O)C=C12 (stereo partly drawn) | inactive: 19.7% |
| Cc1ccc(-c2c(C)n3c4c(=O)n(C)c(=O)n(C)c4nc3n2CCO)cc1 | inconclusive: -48.6% |
| COc1ccc(OC)c(NC(=O)CSc2ncccn2)c1 | inactive: 50.7% |
| COCCN(C(=O)Cc1cccs1)c1nnc(-c2ccncc2)s1 | inactive: -9.95% |
| COc1ccc(OCCN2CCN(C(=O)c3ccc(OC)cc3)CC2)cc1 | active: -89.7% |
| Cc1sc2nc[nH]c(=O)c2c1-c1ccc(Cl)cc1 | active: -74% |
| CCOc1ccccc1C(=O)NCC(=O)OCCOc1cccc(Cl)c1 | inconclusive: -40.9% |
| CN(C)CCOCCP(=O)(c1ccccc1)c1ccccc1 | inconclusive: -45% |
| CCCCOc1ccc(C(C)NC(=O)C2CCCN(S(=O)(=O)CCC)C2)cc1 (stereo not drawn) | inactive: -2.75% |
| CCSc1ncc(Cl)c(C(=O)Nc2ccc(S(=O)(=O)N3CCCCC3)cc2)n1 | inconclusive: -54.1% |
| Cc1ccc(NC(=O)C(Cc2ccccc2)N2C(=O)C3C4CCC(C4)C3C2=O)cc1Cl (stereo not drawn) | inconclusive: -48.4% |
| COc1ccc([N+](=O)[O-])cc1NS(=O)(=O)c1ccc(C)cc1 | inconclusive: -54.8% |
| CN(Cc1ccc(OCC(O)CN2CCCCC2)cc1)Cc1ccnc2ccccc12 (stereo not drawn) | active: -65.8% |
| Cc1ccc(C)c(NS(=O)(=O)c2ccc(NC(=O)c3ccco3)cc2)c1 | inactive: -25.7% |
| COc1ccc2oc(=O)c(C(=O)N3CCN(c4ccccc4C)CC3)cc2c1 | inconclusive: -52.7% |
| CC1CCC(NC(=O)c2ccc(NC(=O)CC3SC(N4CCCC4)=NC3=O)cc2)CC1 (stereo not drawn) | inactive: 10.7% |
| COc1ccccc1C(=O)N1CCN(c2nc3cc(C)c(C)cc3cc2C#N)CC1 | inconclusive: -41.4% |
| O=C(Oc1ccc(Br)cc1)c1n[nH]c(=O)c2ccccc12 | inconclusive: -43.1% |

| SMILES | activity change, negative = inhibition |
| --- | --- |
| C/C(=N\OCC(=O)Nn1c(=O)[nH]c2ccccc2c1=O)c1cccs1 | inconclusive: -56% |
| O=c1c2ccccc2nnn1CSc1nnc(COc2ccc(Cl)cc2)n1Cc1ccco1 | active: -60% |
| CC(C)CN1C(=O)c2ccc(C(=O)Nc3ccncc3)cc2C1=O | inactive: -31.3% |
| Cc1ccc(S(=O)(=O)N(C(=O)c2ccncc2)c2ccc(OC(=O)c3ccncc3)cc2)c(C)c1 | inconclusive: -57.3% |
| COc1ccc(CCNC(=O)C2(C)CCC(=O)N2CCC(C)C)cc1OC (stereo not drawn) | active: -99.9% |
| C[C@H]1C[C@@H](C)C(=O)[C@@H]([C@H](O)CC2CC(=O)NC(=O)C2)C1 | active: -107% |
| Oc1[nH]c(N=C2N=c3ccccc3=N2)c2ccccc12 | active: -96.6% |
| Fc1ccccc1CSc1nc2ncc(Br)cc2[nH]1 | inactive: 31.9% |
| Cc1ccc(Cc2nc3ccccc3nc2SCC(=O)Nc2cccc(C(F)(F)F)c2)cc1 | inconclusive: -41.3% |
| CC(=O)c1cc(-c2ccc(F)cc2)n(CCC(=O)Nc2nc3c(C)cccc3s2)c1C | inactive: 0% |
| COc1ccc(CC(=O)NC(C)c2ccc3ccccc3c2)cc1 (stereo not drawn) | inactive: 41.3% |
| O=C(Nc1ccc2nc3n(c(=O)c2c1)CCCC3)c1ccc(Cl)nc1 | inconclusive: -51.8% |
| O=C1COc2cc(S(=O)(=O)CCC(=O)N3CCN(c4cccc(Cl)c4)CC3)c(Cl)cc2N1 | inconclusive: -43.4% |
| O=C(Nc1nccs1)C1C2/C=C\CCCCC21 (stereo not drawn) | inconclusive: -41.6% |
| COc1ccc(S(=O)(=O)n2ccc(-c3ccc(OCCN(C)c4ccccn4)cc3)n2)cc1 | inconclusive: -56.5% |
| COCCn1c(SCC(=O)Nc2ccc(NC(=O)c3ccco3)c(OC)c2)nc2ccccc2c1=O | inconclusive: -41.4% |
| COc1ccccc1Nc1ccc(S(=O)(=O)N2CCCCC2)cc1[N+](=O)[O-] | inconclusive: -47.6% |
| Cc1nn(CC(=O)NCCc2ccccc2Cl)c(=O)c2nn(-c3ccccc3)c(C)c12 | inconclusive: -48.4% |
| C=CCN(Cc1nc(-c2ccccc2)no1)C(=O)c1ccoc1C | inconclusive: -50.5% |
| Cc1ccccc1N1CC(O)(c2ccccc2)[N+]2=C1SCC2 (stereo not drawn) | inconclusive: -51% |
| O=C(CSCc1ccc([N+](=O)[O-])cc1)Nc1cccc(C(=O)Nc2ccccc2C(=O)O)c1 | inconclusive: -53.4% |

Quoted at random: 2 compounds from above

| SMILES | activity change, negative = inhibition |
| --- | --- |
| COc1ccc(OC)c(NC(=O)CSc2ncccn2)c1 | inactive: 50.7% |
| Cc1sc2nc[nH]c(=O)c2c1-c1ccc(Cl)cc1 | active: -74% |
